Assay results

The results are deposited in PubChem (AID504749; NCATS, 2011).

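A panel of P. falciparum strains inside erythrocytes is exposed to compounds for three days, then a DNA-binding dye reports the amount of parasite DNA.
Each compound was titrated across a series from about 0.000037 to 29 µM.
The number is the fitted AC50, the concentration giving a half-maximal change in signal; a lower value means higher potency, whether the curve shows a decrease or an increase.
Calls follow the curve class and fit quality: every row here is inconclusive, covering signal-raising curves and weak, poorly fitted, partial or highest-dose-only inhibition curves.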

Values are in nM.
All entries here are filed as inconclusive.
These entries are mostly ones the record files as inconclusive; other results of the assay are not listed here.
A potency from a partial, single-point or poor curve is only a rough figure.
Some entries filed as inconclusive have a full curve.
The first word of each remark tells which way the curve ran; it can be opposite to the aim of the assay.

compound	condition	fitted potency (nM)	curve as filed
C1COC(NC(C2CC2)C2CC2)=N1	DFO2036	10000	inhibitor, partial curve, poor fit
C1COC(NC(C2CC2)C2CC2)=N1	N140	12589	inhibitor, partial curve, poor fit
C1COC(NC(C2CC2)C2CC2)=N1	GB4	84.9	inhibitor, full curve, poor fit
C1COC(NC(C2CC2)C2CC2)=N1	DIV17	13459	inhibitor, single point
C1COC(NC(C2CC2)C2CC2)=N1	CP260	8912	inhibitor, single point
C1COC(NC(C2CC2)C2CC2)=N1	CP217	7943	inhibitor, partial curve
C1COC(NC(C2CC2)C2CC2)=N1	CP325	1	activator
C1COC(NC(C2CC2)C2CC2)=N1	CP238	12589	inhibitor, single point
C1COC(NC(C2CC2)C2CC2)=N1	CP256	12589	inhibitor, single point
C1COC(NC(C2CC2)C2CC2)=N1	ECU	8912	inhibitor, partial curve
CC(=O)O[C@H]1C[C@H](O[C@H]2[C@@H](O)CC(O[C@H]3[C@@H](O)C[C@H](O[C@H]4CC[C@@]5(C)[C@H](CC[C@@H]6[C@@H]5CC[C@]5(C)[C@@H](C7=CC(=O)OC7)CC[C@]65O)C4)O[C@@H]3C)O[C@@H]2C)O[C@H](C)[C@H]1O[C@@H]1O[C@H](CO)[C@@H](O)[C@H](O)[C@H]1O (stereo partly specified)	DIV14	7569	inhibitor, partial curve
CC(=O)O[C@H]1C[C@H](O[C@H]2[C@@H](O)CC(O[C@H]3[C@@H](O)C[C@H](O[C@H]4CC[C@@]5(C)[C@H](CC[C@@H]6[C@@H]5CC[C@]5(C)[C@@H](C7=CC(=O)OC7)CC[C@]65O)C4)O[C@@H]3C)O[C@@H]2C)O[C@H](C)[C@H]1O[C@@H]1O[C@H](CO)[C@@H](O)[C@H](O)[C@H]1O (stereo partly specified)	7G8	5012	inhibitor, partial curve
CC(=O)O[C@H]1C[C@H](O[C@H]2[C@@H](O)CC(O[C@H]3[C@@H](O)C[C@H](O[C@H]4CC[C@@]5(C)[C@H](CC[C@@H]6[C@@H]5CC[C@]5(C)[C@@H](C7=CC(=O)OC7)CC[C@]65O)C4)O[C@@H]3C)O[C@@H]2C)O[C@H](C)[C@H]1O[C@@H]1O[C@H](CO)[C@@H](O)[C@H](O)[C@H]1O (stereo partly specified)	DIV17	7569	inhibitor, partial curve, poor fit
CC(=O)O[C@H]1C[C@H](O[C@H]2[C@@H](O)CC(O[C@H]3[C@@H](O)C[C@H](O[C@H]4CC[C@@]5(C)[C@H](CC[C@@H]6[C@@H]5CC[C@]5(C)[C@@H](C7=CC(=O)OC7)CC[C@]65O)C4)O[C@@H]3C)O[C@@H]2C)O[C@H](C)[C@H]1O[C@@H]1O[C@H](CO)[C@@H](O)[C@H](O)[C@H]1O (stereo partly specified)	PC26	601.2	inhibitor, full curve
CC(=O)O[C@H]1C[C@H](O[C@H]2[C@@H](O)CC(O[C@H]3[C@@H](O)C[C@H](O[C@H]4CC[C@@]5(C)[C@H](CC[C@@H]6[C@@H]5CC[C@]5(C)[C@@H](C7=CC(=O)OC7)CC[C@]65O)C4)O[C@@H]3C)O[C@@H]2C)O[C@H](C)[C@H]1O[C@@H]1O[C@H](CO)[C@@H](O)[C@H](O)[C@H]1O (stereo partly specified)	CP203	15.1	inhibitor, full curve, poor fit
CC(=O)O[C@H]1C[C@H](O[C@H]2[C@@H](O)CC(O[C@H]3[C@@H](O)C[C@H](O[C@H]4CC[C@@]5(C)[C@H](CC[C@@H]6[C@@H]5CC[C@]5(C)[C@@H](C7=CC(=O)OC7)CC[C@]65O)C4)O[C@@H]3C)O[C@@H]2C)O[C@H](C)[C@H]1O[C@@H]1O[C@H](CO)[C@@H](O)[C@H](O)[C@H]1O (stereo partly specified)	CP191	12589	inhibitor, single point
CC(=O)O[C@H]1C[C@H](O[C@H]2[C@@H](O)CC(O[C@H]3[C@@H](O)C[C@H](O[C@H]4CC[C@@]5(C)[C@H](CC[C@@H]6[C@@H]5CC[C@]5(C)[C@@H](C7=CC(=O)OC7)CC[C@]65O)C4)O[C@@H]3C)O[C@@H]2C)O[C@H](C)[C@H]1O[C@@H]1O[C@H](CO)[C@@H](O)[C@H](O)[C@H]1O (stereo partly specified)	TAB109	3548	inhibitor, single point
CC(=O)O[C@H]1C[C@H](O[C@H]2[C@@H](O)CC(O[C@H]3[C@@H](O)C[C@H](O[C@H]4CC[C@@]5(C)[C@H](CC[C@@H]6[C@@H]5CC[C@]5(C)[C@@H](C7=CC(=O)OC7)CC[C@]65O)C4)O[C@@H]3C)O[C@@H]2C)O[C@H](C)[C@H]1O[C@@H]1O[C@H](CO)[C@@H](O)[C@H](O)[C@H]1O (stereo partly specified)	3D7	8912	inhibitor, single point
CC(=O)O[C@H]1C[C@H](O[C@H]2[C@@H](O)CC(O[C@H]3[C@@H](O)C[C@H](O[C@H]4CC[C@@]5(C)[C@H](CC[C@@H]6[C@@H]5CC[C@]5(C)[C@@H](C7=CC(=O)OC7)CC[C@]65O)C4)O[C@@H]3C)O[C@@H]2C)O[C@H](C)[C@H]1O[C@@H]1O[C@H](CO)[C@@H](O)[C@H](O)[C@H]1O (stereo partly specified)	PC15	707.9	inhibitor, full curve, poor fit
CC(=O)O[C@H]1C[C@H](O[C@H]2[C@@H](O)CC(O[C@H]3[C@@H](O)C[C@H](O[C@H]4CC[C@@]5(C)[C@H](CC[C@@H]6[C@@H]5CC[C@]5(C)[C@@H](C7=CC(=O)OC7)CC[C@]65O)C4)O[C@@H]3C)O[C@@H]2C)O[C@H](C)[C@H]1O[C@@H]1O[C@H](CO)[C@@H](O)[C@H](O)[C@H]1O (stereo partly specified)	CP237	4467	inhibitor, partial curve
CN(C)C(=O)Nc1ccc(Cl)c(Cl)c1	C2A	8912	inhibitor, partial curve, poor fit
CN(C)C(=O)Nc1ccc(Cl)c(Cl)c1	CP215	6746	inhibitor, partial curve
CN(C)C(=O)Nc1ccc(Cl)c(Cl)c1	CP252	11220	inhibitor, partial curve
CN(C)C(=O)Nc1ccc(Cl)c(Cl)c1	CP256	10000	inhibitor, single point
CN(C)C(=O)Nc1ccc(Cl)c(Cl)c1	CP269	6746	inhibitor, partial curve, poor fit
CN(C)C(=O)Nc1ccc(Cl)c(Cl)c1	P93_24	10000	inhibitor, single point

The last 3 entries again:

compound	condition	fitted potency (nM)	curve as filed
CN(C)C(=O)Nc1ccc(Cl)c(Cl)c1	CP256	10000	inhibitor, single point
CN(C)C(=O)Nc1ccc(Cl)c(Cl)c1	CP269	6746	inhibitor, partial curve, poor fit
CN(C)C(=O)Nc1ccc(Cl)c(Cl)c1	P93_24	10000	inhibitor, single point